Source: patent US20230043518A1, “CANCER IMMUNOTHERAPY” (AXELIA ONCOLOGY PTY LTD, priority 2019, published 2023)
“Also recorded” adds a separate entry of the source. At least one peptide structure holds a part that was inferred or is arguable (an end, a ring closure or a residue). At least one compound was matched to its structure with a doubt left.

Experiments:
[1] = system: MC38 (colon adenocarcinoma); assay: MC38 subcutaneous tumour model, compound 1 with anti-PD1; type: in vivo, mouse; details: 10 μg compound 1 i.v. combined with anti-PD1 i.p.; FIG. 3B
4T1.2 (breast cancer) = assay: 4T1.2 breast cancer metastasis model; type: in vivo, mouse
Method: C57BL/6 or Balb/c Wild-type (WT) mice were purchased from Walter and Eliza Hall Institute for Medical Research or bred in house and maintained at the QIMR Berghofer Medical Research Institute. Mice greater than 8 weeks of age were sex-matched to the appropriate models. In all studies, no mice were excluded based on pre-established criteria and randomization was applied immediately prior to treatment in therapy experiments. Experiments were conducted as approved by the QIMR Berghofer Medical Research Institute Animal Ethics Committee.
Mouse B16F10 (melanoma), MC38 (colon adenocarcinoma) and 4T1.2 (breast cancer) cells were grown in Dulbecco's Modified Eagle Medium (DMEM) supplemented with 10% Fetal Calf Serum (Bovogen), 1% Glutamine (Gibco), and 1% Penicillin/Streptomycin (Gibco). B16F10 and 4T1.2 cells were maintained at 37° C., 5% CO2. MC38 cells were maintained at 37° C., 10% CO2. All cell lines were routinely tested negative for Mycoplasma, but cell line authentication was not routinely performed.
5×10^4 4T1.2 cells were injected into the 4th mammary fat pad in a volume of 50 μl (day 0). On day 12 after injection, primary tumours were surgically removed under isoflurane anesthesia. Mice were injected treated as indicated in figure legends on day 15, 18 and 21 after tumour cell injection. […] For this, macroscopic visible lung metastases were counted. […]

In the case of CCCCCCCCCCCCCCCC(=O)OCC(CSCC(N)C(=O)N[C@@H](CO)C(=O)NCCOCCOCCOCCOCCOCCOCCOCCOCCOCCOCCOCCOCCC(=O)NCC(N)=O)OC(=O)CCCCCCCCCCCCCCC (stereo partly drawn) [compound 1], the “tumour growth, MC38” value [1] is reported as “superior compared to anti-PD1 monotherapy; also recorded: improves the efficacy of anti-PD1 immunotherapy”, the “metastatic burden (lung metastases)” value (4T1.2 (breast cancer); 10 μg compound 1 combined with anti-PD1, after surgical removal of primary tumour, FIG. 4B) is reported as “significantly reduced metastatic burden” and the “number of lung metastases” value (4T1.2 (breast cancer); systemic administration of 10 μg compound 1 alone, after surgical removal of primary tumour) is reported as “lower numbers of lung metastases”.
